PubChem BioAssay AID1259254 – NCATS, 2017

Screen: 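Gene knock-downs that lead to re-replication, shown by excess G2 DNA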 (primary screen)
System: human HCT116 colorectal cancer cells
Reagents: single siRNA against human genes
Duration: 3 days
Measurement: 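Imaged Hoechst DNA stain sorts each cell into a cycle phase by DNA amount; per plate, G2 fraction set to 0% for non-targeting and 100% for GMNN siRNA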
Scale: G2 robust z-score and G2 cells, % of GMNN control: higher = more G2 cells, more excess DNA replication
Active means: 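An siRNA counts as active if its G2 robust z-score lies at least 5 MADs above the screen median; here such calls match roughly 38% of GMNN control or more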
The whole screen tested about 59,000 reagents; this is a part drawn at random. In the full data, about 1,550 (2.6%) got an active call. 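G2 share is only a proxy for re-replication; each gene was hit by three separate siRNAs, and active genes were retested.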 Further read-outs or replicates are left out here. No sequences are given here. Not stated in the record: the amount of reagent.

target gene	PubChem SID	G2 robust z-score	G2 cells, % of GMNN control	Outcome
NPFFR1 (neuropeptide FF receptor 1)	SID160724513	-0.838	-2.93	inactive
NPFFR1 (neuropeptide FF receptor 1)	SID160747465	-1.06	-4.48	inactive
NPFFR1 (neuropeptide FF receptor 1)	SID160747466	-0.117	2.14	inactive
NLRP9 (NLR family pyrin domain containing 9)	SID160764004	0.125	3.85	inactive
NLRP9 (NLR family pyrin domain containing 9)	SID160764005	-0.197	1.58	inactive
NLRP9 (NLR family pyrin domain containing 9)	SID160764006	-0.339	0.585	inactive
MPZL1 (myelin protein zero like 1)	SID160721275	-1.11	-4.82	inactive
MPZL1 (myelin protein zero like 1)	SID160721276	4.12	31.9	inactive
MPZL1 (myelin protein zero like 1)	SID160721277	-0.549	-0.892	inactive
FNIP1 (folliculin interacting protein 1)	SID160754667	-0.671	-1.75	inactive
FNIP1 (folliculin interacting protein 1)	SID160754668	-0.784	-2.55	inactive
FNIP1 (folliculin interacting protein 1)	SID160754669	-0.422	-0.00135	inactive
XPR1 (xenotropic and polytropic retrovirus receptor 1)	SID160721736	2.92	23.5	inactive
XPR1 (xenotropic and polytropic retrovirus receptor 1)	SID160721737	0.52	6.63	inactive
XPR1 (xenotropic and polytropic retrovirus receptor 1)	SID160721738	0.207	4.42	inactive
CHRNA7 (cholinergic receptor nicotinic alpha 7 subunit)	SID160743311	5.42	41.1	active
CHRNA7 (cholinergic receptor nicotinic alpha 7 subunit)	SID160743322	2.07	17.6	inactive
CHRNA7 (cholinergic receptor nicotinic alpha 7 subunit)	SID160743333	-0.989	-3.99	inactive
SLC1A2	SID160716784	0.433	6.02	inactive
SLC1A2	SID160716785	0.623	7.35	inactive
SLC1A2	SID160731747	4.63	35.5	inactive
PLGLB2 (plasminogen like B2)	SID160714471	-0.603	-1.27	inactive
PLGLB2 (plasminogen like B2)	SID160714472	0.683	7.77	inactive
PLGLB2 (plasminogen like B2)	SID160714473	-0.315	0.754	inactive
TRMT44 (tRNA methyltransferase 44 homolog)	SID160759300	-0.17	1.77	inactive
TRMT44 (tRNA methyltransferase 44 homolog)	SID160759301	-0.946	-3.69	inactive
TRMT44 (tRNA methyltransferase 44 homolog)	SID160759302	-0.0947	2.3	inactive
ISLR2 (immunoglobulin superfamily containing leucine rich repeat 2)	SID160746406	3.74	29.3	inactive
ISLR2 (immunoglobulin superfamily containing leucine rich repeat 2)	SID160746407	0.284	4.96	inactive
ISLR2 (immunoglobulin superfamily containing leucine rich repeat 2)	SID160746408	-0.568	-1.03	inactive
TCFL5 (transcription factor like 5)	SID160729110	0.299	5.07	inactive
TCFL5 (transcription factor like 5)	SID160729111	1.95	16.7	inactive
TCFL5 (transcription factor like 5)	SID160729112	3.46	27.3	inactive
NPEPPS (aminopeptidase puromycin sensitive)	SID160763582	1.64	14.5	inactive
NPEPPS (aminopeptidase puromycin sensitive)	SID160763685	-0.52	-0.689	inactive
NPEPPS (aminopeptidase puromycin sensitive)	SID160763785	-0.797	-2.64	inactive
ANAPC16 (anaphase promoting complex subunit 16)	SID160732369	-0.309	0.791	inactive
ANAPC16 (anaphase promoting complex subunit 16)	SID160755717	-1.04	-4.32	inactive
ANAPC16 (anaphase promoting complex subunit 16)	SID160755718	-1.18	-5.35	inactive
SMTNL2 (smoothelin like 2)	SID160764618	-0.962	-3.8	inactive
SMTNL2 (smoothelin like 2)	SID160764619	0.841	8.89	inactive
SMTNL2 (smoothelin like 2)	SID160764620	1.58	14.1	inactive
GCM1 (GCM transcription factor 1)	SID160720229	-0.754	-2.33	inactive
GCM1 (GCM transcription factor 1)	SID160720230	1.04	10.3	inactive
GCM1 (GCM transcription factor 1)	SID160720231	-0.983	-3.95	inactive
KCNK17 (potassium two pore domain channel subfamily K member 17)	SID160753441	-0.18	1.7	inactive
KCNK17 (potassium two pore domain channel subfamily K member 17)	SID160753442	2.78	22.6	inactive
KCNK17 (potassium two pore domain channel subfamily K member 17)	SID160753444	-1.44	-7.16	inactive
ACSM6 (acyl-CoA synthetase medium chain family member 6)	SID160757989	-0.306	0.815	inactive
ACSM6 (acyl-CoA synthetase medium chain family member 6)	SID160757990	4.95	37.8	inactive
ACSM6 (acyl-CoA synthetase medium chain family member 6)	SID160757991	3.15	25.1	inactive
ZXDB (zinc finger X-linked duplicated B)	SID160730666	0.296	5.05	inactive
ZXDB (zinc finger X-linked duplicated B)	SID160759671	-0.0896	2.34	inactive
ZXDB (zinc finger X-linked duplicated B)	SID160759674	0.55	6.84	inactive
DPF3 (double PHD fingers 3)	SID160719642	-0.381	0.289	inactive
DPF3 (double PHD fingers 3)	SID160719644	3.48	27.5	inactive
DPF3 (double PHD fingers 3)	SID160719645	-0.873	-3.17	inactive
ZFYVE26 (zinc finger FYVE-type containing 26)	SID160736404	-0.672	-1.76	inactive
ZFYVE26 (zinc finger FYVE-type containing 26)	SID160736405	0.884	9.19	inactive
ZFYVE26 (zinc finger FYVE-type containing 26)	SID160736406	3.56	28	inactive
C7 (complement C7)	SID160729970	-0.663	-1.7	inactive
C7 (complement C7)	SID160729979	0.636	7.44	inactive
C7 (complement C7)	SID160729988	-0.589	-1.18	inactive
PPP4R3B (protein phosphatase 4 regulatory subunit 3B)	SID160745848	-0.00558	2.93	inactive
PPP4R3B (protein phosphatase 4 regulatory subunit 3B)	SID160745849	0.642	7.49	inactive
PPP4R3B (protein phosphatase 4 regulatory subunit 3B)	SID160745850	-0.249	1.21	inactive
EEF2KMT (eukaryotic elongation factor 2 lysine methyltransferase)	SID160732641	-0.364	0.405	inactive
EEF2KMT (eukaryotic elongation factor 2 lysine methyltransferase)	SID160760635	0.0676	3.44	inactive
EEF2KMT (eukaryotic elongation factor 2 lysine methyltransferase)	SID160760636	0.2	4.37	inactive
